From the supplement of paper PMC12067093, “Discovery and optimisation of a covalent ligand for TRIM25 and its application to targeted protein ubiquitination” (Chemical Science, 2025) come the findings set out here.

The other results are listed elsewhere or left out.

Compound in this experiment: CC1Cc2ccccc2N1C(=O)C1CCCN(C1)C(=O)CCl (mixture of isomers) [TRIM25 ligand 11 (diastereomer mixture)]
Nature of the experiment: probe-labelled cysteine peptide fold change vs DMSO (competition) (log2 fold change); higher = less target engagement (more negative = stronger competition). Particulars: THP-1, incubation time: 4 h.
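Also: competitive chemoproteomic profiling in live THP-1 cells with an iodoacetamide desthiobiotin (IA-DTB) probe, comparing probe-labelled peptide intensities in compound-treated cells against DMSO-treated controls.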

For “ITPR1_Q14643_1424_VVTHEDCIPEVK (UniProt Q14643)”, the “probe-labelled cysteine peptide fold change” value runs as follows: (10 µM) 0.224; (50 µM) 0.147.
Turning to “IVNS1ABP_Q9Y6Y0_482_NCDVFDPVTK (UniProt Q9Y6Y0)”, the “probe-labelled cysteine peptide fold change” value (10 µM) was found to be 0.137 and the “probe-labelled cysteine peptide fold change” value (50 µM) amounted to 0.166.
In the case of “JMJD1C_Q15652_1721+1722_QTGESFLQDDSCCEIGPNLQK (UniProt Q15652)”, the “probe-labelled cysteine peptide fold change” value reads like this: (10 µM) 0.0717; (50 µM) 0.0885.
Take “ITPR1_Q14643_326_HLATGHYLAAEVDPDFEEECLEFQPSVDPDQDASR (UniProt Q14643)”: the “probe-labelled cysteine peptide fold change” value (10 µM) is -0.0727 and the “probe-labelled cysteine peptide fold change” value (50 µM) was -0.462.
The like results for “KIF11_P52732_704_QCGNLTEDLK (UniProt P52732)” were, in that order, 0.0757 and 0.0473.
The corresponding values for “ITPR2_Q14571_1415_VVTHDDCIPEVK (UniProt Q14571)” are 0.0273 and -0.0219.
As for “KHSRP_Q92945_176_IQQDSGCK (UniProt Q92945)”, the “probe-labelled cysteine peptide fold change” value is, setting by setting: (10 µM) -0.0168; (50 µM) 0.161.
For the target “KIAA2013_Q8IYS2_185_DCVLLQEDFLAHR (UniProt Q8IYS2)”, the “probe-labelled cysteine peptide fold change” value runs as follows: (10 µM) -0.0533; (50 µM) 0.177.
The like results for “KIAA0586_Q9BVV6_293_YSVKPEHPNLGSCNPSLYNTFASK (UniProt Q9BVV6)” were, in that order, 0.0534 and 0.00694.
In the case of “KCNAB2_Q13303_212_QFNLTPPICEQAEYHMFQR (UniProt Q13303)”, the “probe-labelled cysteine peptide fold change” value (10 µM) is 0.169 and the “probe-labelled cysteine peptide fold change” value (50 µM) is -0.0682.
In the case of “KDM1A_O60341_623_CDAVLCTLPLGVLK (UniProt O60341)”, the “probe-labelled cysteine peptide fold change” value was found to be 0.0788 (10 µM) and 0.195 (50 µM).
For “IVNS1ABP_Q9Y6Y0_495_LWTSCAPLNIR (UniProt Q9Y6Y0)”, the “probe-labelled cysteine peptide fold change” value runs as follows: (10 µM) 0.165; (50 µM) 0.216.
The corresponding values for “ITPR1_Q14643_1394_MDENSPLMYHIHLVELLAVCTEGK (UniProt Q14643)” are 0.158 and -0.269.
For “KDM4A_O75164_844+847_TAGCCVQCSHGR (UniProt O75164)”, the “probe-labelled cysteine peptide fold change” value reads like this: (10 µM) 0.00224; (50 µM) 0.211.
On to “ITSN2_Q9NZM3_1414_ENSDRLEWIQAHVQCEGLAEQLIFNSLTNCLGPR (UniProt Q9NZM3)”, for which the “probe-labelled cysteine peptide fold change” value came out at 0.273 (10 µM) and 0.0125 (50 µM).
With “JMJD6_Q6NYC1_101_CGEDNDGYSVK (UniProt Q6NYC1)”, the “probe-labelled cysteine peptide fold change” value by setting is: (10 µM) -0.0119; (50 µM) -0.111.
Regarding “KDSR_Q06136_121_LGPVDMLVNCAGMAVSGK (UniProt Q06136)”, the “probe-labelled cysteine peptide fold change” value is, setting by setting: (10 µM) -0.072; (50 µM) -0.0848.
Turning to “KBTBD11_O94819_455_GAFAVAHEATTCHGEIYVSGGSLFYR (UniProt O94819)”, the “probe-labelled cysteine peptide fold change” value reads like this: (10 µM) -0.034; (50 µM) 0.0762.
Consider “KIDINS220_Q9ULH0_747_CEVELMAR (UniProt Q9ULH0)”, for which the “probe-labelled cysteine peptide fold change” value runs as follows: (10 µM) -0.0216; (50 µM) 0.105.
With “KAT7_O95251_474_NSFLNYNVSCILTMPQYMR (UniProt O95251)”, the “probe-labelled cysteine peptide fold change” value (10 µM) was 0.151 and the “probe-labelled cysteine peptide fold change” value (50 µM) was determined as 0.188.
Consider “ITPK1_Q13572_156_NGLTFPFICK (UniProt Q13572)”, for which the “probe-labelled cysteine peptide fold change” value was -0.337 (10 µM) and 0.0508 (50 µM).
As to “KIAA0100_Q14667_471_GVLTVDHLCWR (UniProt Q14667)”, the “probe-labelled cysteine peptide fold change” value runs as follows: (10 µM) -0.0348; (50 µM) 0.138.
The like results for “KHSRP_Q92945_296_VQQACEMVMDILR (UniProt Q92945)” were, in that order, 0.125 and -0.164.
Take “KDM2A_Q9Y2K7_913_ELCECMR (UniProt Q9Y2K7)”: the “probe-labelled cysteine peptide fold change” value (10 µM) is 0.136 and the “probe-labelled cysteine peptide fold change” value (50 µM) was determined as 0.318.
As for “ITSN2_Q9NZM3_1414+1429_ENSDRLEWIQAHVQCEGLAEQLIFNSLTNCLGPR (UniProt Q9NZM3)”, the “probe-labelled cysteine peptide fold change” value (10 µM) worked out at 0.239 and the “probe-labelled cysteine peptide fold change” value (50 µM) is 0.0804.
On to “KAT5_Q92993_317_SYSQNLCLLAK (UniProt Q92993)”, for which the “probe-labelled cysteine peptide fold change” value reads like this: (10 µM) 0.121; (50 µM) 0.0863.
For the target “KAT7_O95251_418_IYCQNLCLLAK (UniProt O95251)”, the “probe-labelled cysteine peptide fold change” value runs as follows: (10 µM) 0.19; (50 µM) 0.226.
Regarding “JARID2_Q92833_206_TATNNASSSCQSTPR (UniProt Q92833)”, the “probe-labelled cysteine peptide fold change” value runs as follows: (10 µM) 0.192; (50 µM) 0.258.
Take “ITGB3BP_Q13352_127_ELENLIGISCASHFLK (UniProt Q13352)”: the “probe-labelled cysteine peptide fold change” value reads like this: (10 µM) 0.151; (50 µM) 0.187.
Consider “KATNB1_Q9BVA0_579_YESYVQTGCTSLK (UniProt Q9BVA0)”, for which the “probe-labelled cysteine peptide fold change” value is, setting by setting: (10 µM) -0.0536; (50 µM) 0.151.
The corresponding values for “KDM3B_Q7LBC6_1386_EMVMGLNVLDPHTSHSWLCDGR (UniProt Q7LBC6)” are -0.0411 and -0.127.
Turning to “KIF15_Q9NS87_1062_DMLCEDLAHATEQLNMLTEASK (UniProt Q9NS87)”, the “probe-labelled cysteine peptide fold change” value is, setting by setting: (10 µM) 0.371; (50 µM) -0.0327.
The corresponding values for “KIF15_Q9NS87_1335_QVECLAEENGK (UniProt Q9NS87)” are -0.024 and -0.194.
The corresponding values for “KATNBL1_Q9H079_106_ENELACAGHLPEK (UniProt Q9H079)” are -0.0749 and -0.279.
For the target “KBTBD11_O94819_99_ACPEEPAAPSPEPR (UniProt O94819)”, the “probe-labelled cysteine peptide fold change” value (10 µM) is -0.113 and the “probe-labelled cysteine peptide fold change” value (50 µM) is -0.0056.
With “KDM2A_Q9Y2K7_840_VLVQHCPAR (UniProt Q9Y2K7)”, the “probe-labelled cysteine peptide fold change” value by setting is: (10 µM) 0.0297; (50 µM) -0.0491.
Turning to “KCTD3_Q9Y597_704_GATGECNISER (UniProt Q9Y597)”, the “probe-labelled cysteine peptide fold change” value (10 µM) was -0.0633 and the “probe-labelled cysteine peptide fold change” value (50 µM) is -0.15.
With “KBTBD2_Q8IY47_145_LLSFADLFSCEELK (UniProt Q8IY47)”, the “probe-labelled cysteine peptide fold change” value (10 µM) was -0.048 and the “probe-labelled cysteine peptide fold change” value (50 µM) is -0.103.
